These are yes or no findings as the source states them, for the method shown. Binding can be weak; no strength is given.
Molecular target: FHL-1 protein (Abnova) (UniProt Q13642)
Assay: pull-down; GST pull-down: purified protein incubated with a GST-fusion protein immobilised on glutathione sepharose beads, 4 °C, 1.5 h; washes in high and low salt buffer; SDS-PAGE and western blot; both purified

The chains behind the UniProt entries cited, without tags or fusion partners. Where a name states a change or a piece, a line headed by the entry shows the natural chain unless it says otherwise.
UniProt Q13642: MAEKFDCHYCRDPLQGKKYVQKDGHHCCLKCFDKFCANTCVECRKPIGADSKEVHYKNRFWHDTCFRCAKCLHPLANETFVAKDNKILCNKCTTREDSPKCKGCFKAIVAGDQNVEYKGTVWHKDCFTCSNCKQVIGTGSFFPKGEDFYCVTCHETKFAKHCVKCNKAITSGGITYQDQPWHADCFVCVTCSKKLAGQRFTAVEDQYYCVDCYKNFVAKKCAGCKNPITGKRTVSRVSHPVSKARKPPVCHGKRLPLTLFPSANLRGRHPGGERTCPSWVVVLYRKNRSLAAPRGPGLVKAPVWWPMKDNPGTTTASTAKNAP

binding: binds
B1: recombinant human full-length PP5 (enzyme, UniProt P53041 1-499)
chain: MAMAEGERTECAEPPRDEPPADGALKRAEELKTQANDYFKAKDYENAIKFYSQAIELNPSNAIYYGNRSLAYLRTECYGYALGDATRAIELDKKYIKGYYRRAASNMALGKFRAALRDYETVVKVKPHDKDAKMKYQECNKIVKQKAFERAIAGDEHKRSVVDSLDIESMTIEDEYSGPKLEDGKVTISFMKELMQWYKDQKKLHRKCAYQILVQVKEVLSKLSTLVETTLKETEKITVCGDTHGQFYDLLNIFELNGLPSETNPYIFNGDFVDRGSFSVEVILTLFGFKLLYPDHFHLLRGNHETDNMNQIYGFEGEVKAKYTAQMYELFSEVFEWLPLAQCINGKVLIMHGGLFSEDGVTLDDIRKIERNRQPPDSGPMCDLLWSDPQPQNGRSISKRGVSCQFGPDVTKAFLEENNLDYIIRSHEVKAEGYEVAHGGRCVTVFSAPNYCDQMGNKASYIHLQGSDLRPQFHQFTAVPHPNVKPMAYANTLLQLGMM
